Consider two molecules from article PMC8316374.

The chains behind the UniProt entries cited, without tags or fusion partners. Where a name states a change or a piece, a line headed by the entry shows the natural chain unless it says otherwise. Residues count along the entry.
UniProt Q9Y6G9, residues 389-523: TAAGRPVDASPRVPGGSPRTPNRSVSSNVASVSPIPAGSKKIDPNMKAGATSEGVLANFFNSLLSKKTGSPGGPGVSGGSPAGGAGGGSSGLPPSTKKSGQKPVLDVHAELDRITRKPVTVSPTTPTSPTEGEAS
UniProt P33176: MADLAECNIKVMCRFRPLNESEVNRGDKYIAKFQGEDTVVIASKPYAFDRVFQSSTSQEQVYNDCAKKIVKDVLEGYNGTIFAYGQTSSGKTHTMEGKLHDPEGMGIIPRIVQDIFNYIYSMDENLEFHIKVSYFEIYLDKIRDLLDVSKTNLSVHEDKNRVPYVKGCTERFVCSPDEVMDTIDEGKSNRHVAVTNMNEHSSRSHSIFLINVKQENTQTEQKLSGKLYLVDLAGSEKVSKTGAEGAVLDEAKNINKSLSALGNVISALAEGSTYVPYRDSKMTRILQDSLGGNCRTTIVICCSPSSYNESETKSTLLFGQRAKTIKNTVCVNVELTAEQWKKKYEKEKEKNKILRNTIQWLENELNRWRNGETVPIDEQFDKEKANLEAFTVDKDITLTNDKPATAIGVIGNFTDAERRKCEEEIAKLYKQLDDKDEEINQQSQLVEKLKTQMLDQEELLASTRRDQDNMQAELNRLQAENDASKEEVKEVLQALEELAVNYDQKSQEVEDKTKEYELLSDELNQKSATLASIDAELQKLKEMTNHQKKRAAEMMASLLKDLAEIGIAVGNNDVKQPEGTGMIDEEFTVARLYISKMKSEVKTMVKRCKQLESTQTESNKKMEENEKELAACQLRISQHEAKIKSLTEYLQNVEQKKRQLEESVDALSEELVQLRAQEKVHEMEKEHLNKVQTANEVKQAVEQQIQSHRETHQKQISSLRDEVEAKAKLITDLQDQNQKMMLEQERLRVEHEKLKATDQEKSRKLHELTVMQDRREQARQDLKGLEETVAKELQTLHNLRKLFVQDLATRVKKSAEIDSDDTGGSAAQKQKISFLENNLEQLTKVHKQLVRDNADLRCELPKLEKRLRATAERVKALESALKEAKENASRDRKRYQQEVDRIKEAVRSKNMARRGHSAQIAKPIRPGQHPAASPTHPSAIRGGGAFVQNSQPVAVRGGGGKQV

One test has as its target T1, SNX19-GFP (human) (UniProt Q92543).
T1 sequence: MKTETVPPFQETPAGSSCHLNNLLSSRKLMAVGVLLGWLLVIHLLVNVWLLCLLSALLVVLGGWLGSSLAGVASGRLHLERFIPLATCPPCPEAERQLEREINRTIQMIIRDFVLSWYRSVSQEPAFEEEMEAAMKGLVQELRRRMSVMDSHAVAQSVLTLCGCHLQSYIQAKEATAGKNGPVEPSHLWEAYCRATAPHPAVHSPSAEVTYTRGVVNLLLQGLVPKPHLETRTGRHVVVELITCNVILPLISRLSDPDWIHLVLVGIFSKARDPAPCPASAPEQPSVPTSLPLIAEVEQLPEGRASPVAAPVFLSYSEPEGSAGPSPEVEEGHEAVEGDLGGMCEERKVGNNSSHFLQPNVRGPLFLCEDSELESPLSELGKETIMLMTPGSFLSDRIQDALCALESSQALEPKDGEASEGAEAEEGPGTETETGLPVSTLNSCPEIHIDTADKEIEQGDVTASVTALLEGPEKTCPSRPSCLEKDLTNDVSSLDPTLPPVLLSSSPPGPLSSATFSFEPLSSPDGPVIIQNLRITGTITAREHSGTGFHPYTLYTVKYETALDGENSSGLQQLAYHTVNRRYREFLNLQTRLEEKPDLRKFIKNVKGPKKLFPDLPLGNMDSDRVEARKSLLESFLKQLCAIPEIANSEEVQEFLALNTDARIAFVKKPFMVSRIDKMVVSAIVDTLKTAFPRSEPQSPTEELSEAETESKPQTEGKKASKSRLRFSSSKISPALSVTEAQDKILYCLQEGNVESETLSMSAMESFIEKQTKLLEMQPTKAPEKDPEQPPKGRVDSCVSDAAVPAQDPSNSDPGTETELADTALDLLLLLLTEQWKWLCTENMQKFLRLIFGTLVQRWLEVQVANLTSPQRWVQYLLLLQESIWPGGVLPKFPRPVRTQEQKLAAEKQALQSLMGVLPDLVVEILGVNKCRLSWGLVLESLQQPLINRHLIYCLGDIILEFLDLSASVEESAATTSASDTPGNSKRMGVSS
The test is described as follows: co-IP; GFP-Trap magnetic beads on lysates of HEK293T cells transfected with SNX19-GFP; endogenous kinesin chains looked for by immunoblot. (In western blotting, separated proteins are transferred to a membrane and probed.)

The target in the next test is GST-LIC1-CT (human) (UniProt Q9Y6G9). The test can be described thus: pull-down; purified GST-LIC1-CT re-bound to glutathione resin, incubated 1 h at 4 °C with pre-cleared lysate of HEK293T cells transfected with SNX19-GFP; washed in 10 mM Tris-HCl pH 7, 50 mM NaCl, 2 mM MgCl2, 2 mM TCEP; immunoblot for GFP and GST; only the target purified.

No constants are given. Whether binding was seen depends on the method and setting. In cells and extracts the contact can be indirect. Tags and fused reporters may be left off the sequences shown.

Consider “kinesin-1 (from UniProt P33176 1-963; Q9H0B6 1-622) (complex)”, for which the binding result in the test with SNX19-GFP (human) was “no binding”.

B1: SNX19-GFP (protein, UniProt Q92543 1-992)
chain: MKTETVPPFQETPAGSSCHLNNLLSSRKLMAVGVLLGWLLVIHLLVNVWLLCLLSALLVVLGGWLGSSLAGVASGRLHLERFIPLATCPPCPEAERQLEREINRTIQMIIRDFVLSWYRSVSQEPAFEEEMEAAMKGLVQELRRRMSVMDSHAVAQSVLTLCGCHLQSYIQAKEATAGKNGPVEPSHLWEAYCRATAPHPAVHSPSAEVTYTRGVVNLLLQGLVPKPHLETRTGRHVVVELITCNVILPLISRLSDPDWIHLVLVGIFSKARDPAPCPASAPEQPSVPTSLPLIAEVEQLPEGRASPVAAPVFLSYSEPEGSAGPSPEVEEGHEAVEGDLGGMCEERKVGNNSSHFLQPNVRGPLFLCEDSELESPLSELGKETIMLMTPGSFLSDRIQDALCALESSQALEPKDGEASEGAEAEEGPGTETETGLPVSTLNSCPEIHIDTADKEIEQGDVTASVTALLEGPEKTCPSRPSCLEKDLTNDVSSLDPTLPPVLLSSSPPGPLSSATFSFEPLSSPDGPVIIQNLRITGTITAREHSGTGFHPYTLYTVKYETALDGENSSGLQQLAYHTVNRRYREFLNLQTRLEEKPDLRKFIKNVKGPKKLFPDLPLGNMDSDRVEARKSLLESFLKQLCAIPEIANSEEVQEFLALNTDARIAFVKKPFMVSRIDKMVVSAIVDTLKTAFPRSEPQSPTEELSEAETESKPQTEGKKASKSRLRFSSSKISPALSVTEAQDKILYCLQEGNVESETLSMSAMESFIEKQTKLLEMQPTKAPEKDPEQPPKGRVDSCVSDAAVPAQDPSNSDPGTETELADTALDLLLLLLTEQWKWLCTENMQKFLRLIFGTLVQRWLEVQVANLTSPQRWVQYLLLLQESIWPGGVLPKFPRPVRTQEQKLAAEKQALQSLMGVLPDLVVEILGVNKCRLSWGLVLESLQQPLINRHLIYCLGDIILEFLDLSASVEESAATTSASDTPGNSKRMGVSS
For B1, the binding result with GST-LIC1-CT (human) is recorded as “no binding”.
